The record followed here is article PMC10052876.

Sequences of proteins named here, by UniProt entry; tags and fusion partners are left off. Residues count along the entry.
UniProt O60313, residues 88-960: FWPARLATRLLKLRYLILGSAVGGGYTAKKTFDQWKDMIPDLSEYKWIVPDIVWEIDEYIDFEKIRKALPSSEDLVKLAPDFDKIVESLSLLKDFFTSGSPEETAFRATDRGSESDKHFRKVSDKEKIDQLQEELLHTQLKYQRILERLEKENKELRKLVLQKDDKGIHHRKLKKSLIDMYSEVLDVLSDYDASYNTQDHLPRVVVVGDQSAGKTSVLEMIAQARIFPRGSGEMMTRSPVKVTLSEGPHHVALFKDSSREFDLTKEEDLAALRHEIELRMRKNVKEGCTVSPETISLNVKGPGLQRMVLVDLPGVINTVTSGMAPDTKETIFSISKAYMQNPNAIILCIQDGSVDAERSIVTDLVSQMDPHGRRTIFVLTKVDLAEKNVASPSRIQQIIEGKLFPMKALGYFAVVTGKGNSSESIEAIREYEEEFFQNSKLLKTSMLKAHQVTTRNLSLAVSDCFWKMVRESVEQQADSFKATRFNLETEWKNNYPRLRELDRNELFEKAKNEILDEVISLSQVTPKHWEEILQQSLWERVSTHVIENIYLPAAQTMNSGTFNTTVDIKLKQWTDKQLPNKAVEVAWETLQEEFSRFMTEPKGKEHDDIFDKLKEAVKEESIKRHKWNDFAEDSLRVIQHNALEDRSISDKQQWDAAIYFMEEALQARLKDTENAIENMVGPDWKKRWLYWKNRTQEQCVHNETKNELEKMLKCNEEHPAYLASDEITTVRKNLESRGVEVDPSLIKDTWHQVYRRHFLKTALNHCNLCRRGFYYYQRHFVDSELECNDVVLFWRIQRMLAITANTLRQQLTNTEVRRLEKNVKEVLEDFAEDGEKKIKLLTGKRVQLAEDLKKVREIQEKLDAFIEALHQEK

No constants are given. Whether binding was seen depends on the method and setting. For part of these data: In cells and extracts the contact can be indirect. Some results given as binding are weak or reduced against the parent protein; the word gives no strength.

The target in assay [1] is OPA1 (human (endogenous in fibroblasts)) (UniProt O60313). Description: co-IP; endogenous SLC25A46 or OPA1 immunoprecipitated (antibody cross-linked to Dynabeads Protein A) from control human fibroblast crude mitochondria cross-linked with 1 mM DSP, extracted in 10 mM Tris-HCl pH 7.5, 150 mM NaCl, 1% DDM; overnight at 4°C; immunoblot. Background: In western blotting, separated proteins are transferred to a membrane and probed.

Assay [2] deals with T1, SLC25A46 (human (endogenous in fibroblasts)), Q96AG3.
T1 chain: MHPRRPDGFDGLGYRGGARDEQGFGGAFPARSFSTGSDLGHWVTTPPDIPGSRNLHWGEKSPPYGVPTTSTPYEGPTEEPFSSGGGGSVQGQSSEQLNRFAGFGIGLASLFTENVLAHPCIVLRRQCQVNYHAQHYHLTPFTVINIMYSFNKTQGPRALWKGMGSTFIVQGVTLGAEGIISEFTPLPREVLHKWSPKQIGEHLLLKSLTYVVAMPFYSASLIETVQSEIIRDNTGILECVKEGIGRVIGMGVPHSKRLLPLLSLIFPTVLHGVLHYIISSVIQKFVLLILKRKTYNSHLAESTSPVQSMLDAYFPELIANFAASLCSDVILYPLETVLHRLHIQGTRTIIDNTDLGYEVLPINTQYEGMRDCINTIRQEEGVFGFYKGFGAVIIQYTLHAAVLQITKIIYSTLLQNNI
The description is as above. The note with it: remark: other sources report otherwise.

In assay [3] the target is T2, MFN2 (human (endogenous in fibroblasts)), O95140.
T2 chain: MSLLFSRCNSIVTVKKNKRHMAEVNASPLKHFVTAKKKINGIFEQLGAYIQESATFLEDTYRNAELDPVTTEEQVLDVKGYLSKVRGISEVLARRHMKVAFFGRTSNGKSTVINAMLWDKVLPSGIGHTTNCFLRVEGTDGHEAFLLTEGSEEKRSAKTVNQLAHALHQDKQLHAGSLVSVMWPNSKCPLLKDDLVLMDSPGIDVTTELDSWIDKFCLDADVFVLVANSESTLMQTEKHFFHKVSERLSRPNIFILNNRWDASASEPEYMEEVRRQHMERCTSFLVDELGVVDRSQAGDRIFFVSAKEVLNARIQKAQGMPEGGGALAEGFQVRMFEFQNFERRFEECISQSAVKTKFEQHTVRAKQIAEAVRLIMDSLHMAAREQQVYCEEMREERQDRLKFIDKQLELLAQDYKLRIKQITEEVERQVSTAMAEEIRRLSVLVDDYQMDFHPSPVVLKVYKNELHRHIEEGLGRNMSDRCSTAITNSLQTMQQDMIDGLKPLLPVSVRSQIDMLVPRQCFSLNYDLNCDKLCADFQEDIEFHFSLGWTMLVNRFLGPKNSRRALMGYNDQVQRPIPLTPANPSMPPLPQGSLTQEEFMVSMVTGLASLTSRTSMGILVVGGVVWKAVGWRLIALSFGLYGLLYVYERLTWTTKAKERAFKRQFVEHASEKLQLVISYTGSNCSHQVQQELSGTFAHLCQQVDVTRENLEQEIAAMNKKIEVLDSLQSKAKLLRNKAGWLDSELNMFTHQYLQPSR
Description: native gel or EMSA; BN-PAGE (6-15% gradient) of 1% digitonin extracts of crude mitochondria from control human fibroblasts, immunoblot; also two-dimensional BN-PAGE/SDS-PAGE. The note with it: remark: other sources report otherwise. On the technique in general: Mobility shift assays separate free from complexed probe on a gel.

B1: SLC25A46 (protein, UniProt Q96AG3 1-418)
chain: MHPRRPDGFDGLGYRGGARDEQGFGGAFPARSFSTGSDLGHWVTTPPDIPGSRNLHWGEKSPPYGVPTTSTPYEGPTEEPFSSGGGGSVQGQSSEQLNRFAGFGIGLASLFTENVLAHPCIVLRRQCQVNYHAQHYHLTPFTVINIMYSFNKTQGPRALWKGMGSTFIVQGVTLGAEGIISEFTPLPREVLHKWSPKQIGEHLLLKSLTYVVAMPFYSASLIETVQSEIIRDNTGILECVKEGIGRVIGMGVPHSKRLLPLLSLIFPTVLHGVLHYIISSVIQKFVLLILKRKTYNSHLAESTSPVQSMLDAYFPELIANFAASLCSDVILYPLETVLHRLHIQGTRTIIDNTDLGYEVLPINTQYEGMRDCINTIRQEEGVFGFYKGFGAVIIQYTLHAAVLQITKIIYSTLLQNNI
As for B1, in assay [1], the binding entry is listed as “binds”.

B2: MFN2, O95140 1-757 (protein)
chain: MSLLFSRCNSIVTVKKNKRHMAEVNASPLKHFVTAKKKINGIFEQLGAYIQESATFLEDTYRNAELDPVTTEEQVLDVKGYLSKVRGISEVLARRHMKVAFFGRTSNGKSTVINAMLWDKVLPSGIGHTTNCFLRVEGTDGHEAFLLTEGSEEKRSAKTVNQLAHALHQDKQLHAGSLVSVMWPNSKCPLLKDDLVLMDSPGIDVTTELDSWIDKFCLDADVFVLVANSESTLMQTEKHFFHKVSERLSRPNIFILNNRWDASASEPEYMEEVRRQHMERCTSFLVDELGVVDRSQAGDRIFFVSAKEVLNARIQKAQGMPEGGGALAEGFQVRMFEFQNFERRFEECISQSAVKTKFEQHTVRAKQIAEAVRLIMDSLHMAAREQQVYCEEMREERQDRLKFIDKQLELLAQDYKLRIKQITEEVERQVSTAMAEEIRRLSVLVDDYQMDFHPSPVVLKVYKNELHRHIEEGLGRNMSDRCSTAITNSLQTMQQDMIDGLKPLLPVSVRSQIDMLVPRQCFSLNYDLNCDKLCADFQEDIEFHFSLGWTMLVNRFLGPKNSRRALMGYNDQVQRPIPLTPANPSMPPLPQGSLTQEEFMVSMVTGLASLTSRTSMGILVVGGVVWKAVGWRLIALSFGLYGLLYVYERLTWTTKAKERAFKRQFVEHASEKLQLVISYTGSNCSHQVQQELSGTFAHLCQQVDVTRENLEQEIAAMNKKIEVLDSLQSKAKLLRNKAGWLDSELNMFTHQYLQPSR
Turning to B2, the binding entry in assay [2] and in assay [3] was “binds” in each case.
